Test results published in PubChem BioAssay AID1487 (National Center for Advancing Translational Sciences (NCATS), 2009).
The other results are listed elsewhere or left out. These are further read-outs of the screen, such as a control signal, another cell line or another target. No call is given for them. Compounds called inactive in the main read-out are mostly missing here. Words in brackets tell the shape of the fitted curve; partial curves, single points and poor fits give uncertain potencies.

Test: qHTS Assay for Modulators of Lamin A Splicing
Details: HeLa LMNA splicing GFP/RFP minigene ratio, 48 h
Method in brief: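 S3 HeLa cells stably expressing lamin A-EGFP splicing minigene plus DsRed2, 600 cells/well, 48 h compound exposure at 37C. Laser-scanning cytometry; analysed as GFP (500-530 nm)/RFP (575-640 nm) total intensity ratio; 0.5% DMSO vehicle.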

[1] = measured here: GFP splicing reporter channel
[2] = measured here: RFP viability control channel

With `COc1ccc(S(=O)(=O)NCc2ccco2)c2ccccc12` the AC50 [1] was 7.94 µM [rising, partial curve].

In the case of `COc1ccc(OCC(=O)Nn2c(-c3ccc(OC)cc3)nc3ccccc3c2=O)cc1`, the AC50 [1] is reported as 31.6 µM [rising, single point] and the AC50 [2] is reported as 35.5 µM [rising, single point].

For `CS(=O)(=O)N1CCN(c2ccc(NC(=S)NC(=O)c3ccc4c(c3)OCO4)cc2)CC1`, the AC50 [1] was 0.141 µM [falling, partial curve].

With `Cn1ccc2c(OCC(=O)NCc3ccccc3Cl)cccc2c1=O` the AC50 [2] was 35.5 µM [rising, partial curve, poor fit].

In the case of `CC(C(N)=O)N1C(=O)c2cccc3cccc1c23` (stereo not drawn), the AC50 [2] is reported as 8.91 µM [falling, partial curve, poor fit].

For `Cc1ccc2nc(Cl)c(CN(Cc3cccs3)C(=O)C3CC3)cc2c1`, the AC50 [2] was 35.5 µM [rising, single point].

With `CCOc1ccc(C(=O)Nc2ccccc2C#N)cc1[N+](=O)[O-]` the AC50 [2] was 10 µM [rising, single point].

In the case of `CCc1ccc(NC(=O)C(=O)NCC(c2cccnc2)N2CCN(C)CC2)cc1` (stereo not drawn), the AC50 [1] is reported as 25.1 µM [falling, partial curve] and the AC50 [2] is reported as 28.2 µM [falling, partial curve].

With `Cc1csc2nc(CNC(=O)c3cccc(C(F)(F)F)c3)cn12` the AC50 [1] was 35.5 µM [rising, single point].

With `O=C(COC(=O)c1cccc(C(F)(F)F)c1)NCc1ccccc1` the AC50 [2] was 0.00562 µM [falling, full curve, poor fit].

In the case of `CCOC(=O)Nc1ccc2c(c1)Sc1ccccc1N2C(=O)CCN1CCOCC1`, the AC50 [2] is reported as 14.1 µM [rising, single point].

For `O=C(COc1ccc(Cl)cc1)N1CCN(c2ccc([N+](=O)[O-])c(N3CCOCC3)c2)CC1`, the AC50 [2] was 35.5 µM [rising, single point].

In the case of `CC(=O)C(Cc1ccc(Cl)nc1)(Cc1ccc(Cl)nc1)C(C)=O`, the AC50 [1] is reported as 3.55 µM [rising, full curve].

In the case of `CC(C)CNC(=O)c1ccccc1SCC(=O)NC12CC3CC(CC(C3)C1)C2`, the AC50 [2] is reported as 35.5 µM [rising, single point].

In the case of `Cc1cccc(C(=O)NC(=S)Nc2ccc(S(=O)(=O)N3CCCCC3)cc2)c1`, the AC50 [1] is reported as 11.2 µM [rising, single point] and the AC50 [2] is reported as 25.1 µM [rising, single point].

For `Cc1ccc(-c2noc(CSc3nnc(-c4ccccc4)n3C)n2)cc1`, the AC50 [2] was 35.5 µM [rising, single point].

In the case of `CC1(C)SC2[C@@H](N=CN3CCCCCC3)C(=O)N2[C@H]1C(=O)O` (stereo partly drawn), the AC50 [1] is reported as 0.000891 µM [falling, full curve, poor fit] and the AC50 [2] is reported as 0.00316 µM [falling, full curve].

In the case of `O=C(COC(=O)CCc1c[nH]c2ccccc12)NCc1ccccc1`, the AC50 [2] is reported as 35.5 µM [rising, single point].

For `Cc1ccc(-c2nc(CS(=O)(=O)CC(=O)N3CC(C)CC(C)C3)c(C)o2)cc1` (stereo not drawn), the AC50 [1] was 31.6 µM [rising, single point] and the AC50 [2] was 35.5 µM [rising, single point].

For `O=C(c1ccc(Cl)cc1)c1ccc(OCC(O)CN2CCOCC2)cc1` (stereo not drawn), the AC50 [2] was 20 µM [rising, single point].

For `Cc1cc(C)cc(-n2c(SCC(=O)NCC3CCCO3)nc3c([nH]c4ccccc43)c2=O)c1` (stereo not drawn), the AC50 [1] was 3.16 µM [falling, partial curve] and the AC50 [2] was 0.158 µM [falling, partial curve].

For `Cc1cc(C)cc(N(C(=O)CNS(=O)(=O)c2ccccc2)C(C(=O)NCc2ccccc2)c2ccc(C)o2)c1` (stereo not drawn), the AC50 [2] was 14.1 µM [rising, single point].

With `Cn1cnc2c1c(=O)[nH]c(=O)n2C` the AC50 [1] was 0.794 µM [rising, full curve, poor fit].

In the case of `CCCC(=O)C1=C(c2ccc(C)c(C)c2)N(C(=O)CCC)n2c(CC)nnc2S1`, the AC50 [2] is reported as 12.6 µM [rising, partial curve].

With `Cc1ccc2nc(C)c(C(=O)N/N=C/c3cccs3)n2c1` the AC50 [2] was 20 µM [rising, single point].

For `O=C(Cn1cnc2c(cnn2-c2ccccc2)c1=O)N1CCOCC1`, the AC50 [2] was 31.6 µM [rising, single point].

In the case of `COc1cccc(N(C(=O)c2ccco2)c2nc(-c3sc(NC(=O)c4ccco4)nc3C)cs2)c1`, the AC50 [2] is reported as 25.1 µM [falling, partial curve].

With `CC(=O)Nc1ccc(S(=O)(=O)NCCSCc2ccco2)cc1` the AC50 [2] was 20 µM [rising, single point].

In the case of `N#C/C(=C\c1c[nH]c2ccccc12)C(=O)c1ccc(O)c(O)c1`, the AC50 [1] is reported as 15.8 µM [falling, partial curve, poor fit].

In the case of `Cc1ccccc1-c1nc(S(=O)(=O)c2ccc(Br)cc2)c(NCc2cccnc2)o1`, the AC50 [1] is reported as 35.5 µM [rising, single point].

For `CCn1cc(-c2ccnc3cc(C(=O)O)nn23)c(C)n1`, the AC50 [1] was 3.55 µM [rising, partial curve].

In the case of `Cc1cc(C)nc(SCc2csc(-c3ccccc3)n2)n1`, the AC50 [2] is reported as 35.5 µM [rising, partial curve, poor fit].

With `CC(=O)N1CCN(S(=O)(=O)c2cccc(C(=O)Nc3ccccc3N3CCOCC3)c2)CC1` the AC50 [1] was 0.0501 µM [falling, full curve, poor fit].

In the case of `CCOC(=O)c1csc(NC(=O)COc2ccc(Cl)cc2Cl)n1`, the AC50 [2] is reported as 35.5 µM [rising, single point].

With `Cc1ccc(C2CC(=O)Nc3c2ccc2ccccc32)cc1[N+](=O)[O-]` (stereo not drawn) the AC50 [1] was 35.5 µM [rising, single point] and the AC50 [2] was 35.5 µM [rising, single point].

In the case of `CC1CN(c2ccc(C(F)(F)F)cc2[N+](=O)[O-])CCN1S(C)(=O)=O` (stereo not drawn), the AC50 [2] is reported as 11.2 µM [rising, single point].

In the case of `Cc1ccccc1NC(=S)NCCC(c1ccccc1)c1ccccc1`, the AC50 [1] is reported as 35.5 µM [falling, single point] and the AC50 [2] is reported as 12.6 µM [falling, partial curve].

In the case of `C=C(C)COc1ccc(-c2nc(N)ncc2Oc2ccccc2OCC)c(O)c1`, the AC50 [1] is reported as 15.8 µM [falling, single point] and the AC50 [2] is reported as 12.6 µM [falling, single point].

With `S=C(Nc1ccc(Cl)cc1)c1nc2ccccc2[nH]1` the AC50 [2] was 10 µM [rising, partial curve, poor fit].

In the case of `CC(C)CC(=O)O/N=C1\C(=O)N(Cc2ccc(Cl)cc2)c2ccc([N+](=O)[O-])cc21`, the AC50 [1] is reported as 35.5 µM [falling, single point] and the AC50 [2] is reported as 35.5 µM [falling, single point].

For `CCOC(=O)N1CCN(C(=O)c2cccc(F)c2)CC1`, the AC50 [1] was 3.98 µM [falling, single point] and the AC50 [2] was 5.62 µM [falling, single point].

For `Cc1cc(C)cc(Oc2nc(-c3ccccc3)cc(C)c2S(C)(=O)=O)c1`, the AC50 [1] was 20 µM [rising, partial curve, poor fit].

In the case of `Cc1cc(C)cc(N(CCC(=O)Nc2nnc(C3CC3)s2)S(=O)(=O)c2ccc(Cl)cc2)c1`, the AC50 [2] is reported as 11.2 µM [rising, partial curve, poor fit].

For `Cc1cc(C(F)(F)F)nn1Cc1n[nH]c(=S)n1-c1ccc(F)cc1`, the AC50 [2] was 2.51 µM [falling, partial curve, poor fit].

With `O=C(COC(=O)C1=COCCO1)NC1CCCCCCC1` the AC50 [2] was 0.708 µM [rising, partial curve, poor fit].

In the case of `O=[N+]([O-])c1cccc2c(Cl)ccnc12`, the AC50 [1] is reported as 35.5 µM [rising, single point].

For `Cc1ccc(C)c(NC(=O)C(=O)NCCc2csc(-c3cccc(F)c3)n2)c1`, the AC50 [1] was 0.00891 µM [falling, full curve, poor fit] and the AC50 [2] was 0.00501 µM [falling, full curve].

For `O=C(c1ccccc1)N1CCN(Cc2cccc(Oc3ccccc3)c2)CC1`, the AC50 [2] was 17.8 µM [rising, single point].

With `O=C(c1cc(C(=O)NCCc2ccccc2)c(=O)n(CCc2ccccc2)c1)c1cc(Cl)ccc1O` the AC50 [2] was 11.2 µM [rising, partial curve].

For `C=CCn1cc(C(=O)NCc2ccc(Cl)cc2)c(=O)c2cc(S(=O)(=O)N(CC)CC)ccc21`, the AC50 [2] was 12.6 µM [rising, single point].

For `O=C(/C=C/c1cccc(F)c1)Nc1cc(S(=O)(=O)N2CCOCC2)ccc1N1CCCC1`, the AC50 [2] was 0.355 µM [rising, full curve, poor fit].

With `COc1ccc(S(=O)(=O)N2CCC(C(=O)N3CCc4ccccc4C3)CC2)cc1OC` the AC50 [1] was 11.2 µM [rising, partial curve].

In the case of `S=c1[nH]nc(C2CCCCC2)n1/N=C/c1ccc(Br)s1`, the AC50 [1] is reported as 25.1 µM [falling, single point] and the AC50 [2] is reported as 28.2 µM [falling, single point].

For `Cc1ccc(CN2CCc3nc(N4CCN(C)CC4)ncc3C2)cc1`, the AC50 [1] was 4.47 µM [falling, full curve] and the AC50 [2] was 1.78 µM [falling, full curve, poor fit].

In the case of `COc1ccc(C(=O)Nn2c(SCC(=O)NC3CCCC3)nc3ccccc3c2=O)cc1`, the AC50 [2] is reported as 6.31 µM [rising, single point].

In the case of `COCCn1c(SCC(=O)Nc2sccc2C(N)=O)nc2cc(Cl)ccc2c1=O`, the AC50 [1] is reported as 8.91 µM [rising, partial curve] and the AC50 [2] is reported as 11.2 µM [rising, partial curve].

With `COc1ccc(C(=O)N2CCC(c3ccncc3)CC2)cc1OC` the AC50 [1] was 6.31 µM [falling, single point] and the AC50 [2] was 6.31 µM [falling, single point].
